# Reference: PubChem BioAssay AID540256 (National Center for Advancing Translational Sciences (NCATS), 2011)
# Where “and” joins values, the source holds several entries; their conditions need not be identical. Equal values may be shown once. The whole screen tested about 300,000 compounds, of which about 3,700 (1.2%) were called active. The shares of active, inactive and inconclusive entries below differ from those in the screen. Calls follow the shape of the full dose curve; tested in HEK293 cells. Potencies of inconclusive entries are doubtful fits and often do not repeat.
# Assay: qHTS for Inhibitors of binding or entry into cells for Lassa Virus; also: nearly all actives have a fitted effect of over 50% in size
# Details: Lassa virus pseudotype entry inhibition, cell reporter; series mostly up to 37.9 µM
# Potency is read from the fitted curve at half-maximal effect.
row,Structure (SMILES),Potency
1,CCOC(=O)N1CCN(S(=O)(=O)c2ccc(C(=O)N(CCCN(C)C)c3nc4c(F)cc(F)cc4s3)cc2)CC1,"inconclusive: 0.316 µM [activator, full curve, poor fit]"
2,O=c1oc2ccccc2cc1-c1nc(-c2cccc(Cl)c2)cs1,inactive
3,CCOC(=O)N1CCN(C(=O)CSc2ccc(-c3ccccc3OC)nn2)CC1,"inconclusive: 35.5 µM [inhibitor, single point]"
4,CCN1CCN(c2ccc(S(=O)(=O)N3CCCCC3)cc2NC(=O)/C=C/c2cc(OC)ccc2OC)CC1,"inconclusive: 10 µM [inhibitor, partial curve, poor fit]"
5,CN1C(=O)N(CC(=O)N2CCN(c3ncccn3)CC2)C(=O)C12CCCCC2,"inconclusive: 8.91 µM [activator, partial curve, poor fit]"
6,O=C1CC(c2ccco2)Cc2nc(Nc3ccc(F)cc3)ncc21 (configuration not stated),"inconclusive: 14.1 µM [inhibitor, single point]"
7,CCC(C)n1c(SCc2ccc(F)cc2Cl)nc2ccsc2c1=O (configuration not stated),"inconclusive: 12.6 µM [inhibitor, single point]"
8,CCN1CCN(c2ncnc3scc(-c4ccc(C)c(C)c4)c23)CC1,inactive
9,CSc1ccc(CCNC(=O)c2c(C)nn(-c3ccc(F)cc3)c2-n2cccc2)cc1,"inconclusive: 10 µM [inhibitor, partial curve, poor fit]"
10,O=C(NCc1ccc(Cl)cc1)C1CCN(S(=O)(=O)c2ccc(F)cc2)CC1,"inconclusive: 0.562 µM [inhibitor, full curve, poor fit]"
11,CCn1cc(CN2CCCC(C(=O)Nc3cccc(-c4cc5ccccc5[nH]4)c3)C2)c(C)n1 (configuration not stated),"inconclusive: 20 µM [inhibitor, partial curve, poor fit]"
12,CCC(CC)C(=O)Nc1ccc2nc(SCC(=O)N3CCOCC3)sc2c1,inactive
13,O=C(CSc1nnc(-c2cccnc2)n1Cc1ccccc1)NCc1ccco1,inactive
14,COc1ccc(/C=N/NC(=O)c2ccc(Br)o2)cc1Cn1cc([N+](=O)[O-])cn1,"inconclusive: 4.11 µM [inhibitor, single point]"
15,CC/C(C)=N/NS(=O)(=O)c1ccc(C)c([N+](=O)[O-])c1,"inconclusive: 11.2 µM [activator, single point]"
16,Cc1ccc(-n2ncc(C(=O)Nc3ccc(Cl)cc3)c2C2CCNCC2)cc1C,"inconclusive: 31.6 µM [inhibitor, single point]"
17,COc1ccc(C2C(C(=O)OC3CCCCC3)=C(C)Nc3nnnn32)c(OC)c1OC (configuration not stated),"inconclusive: 25.9 µM [inhibitor, partial curve, poor fit] and inconclusive: 316 nM [inhibitor, partial curve, poor fit]"

# Some of these compounds in order of SMILES length, descending:
row,Structure (SMILES),Potency
1,CCOC(=O)N1CCN(S(=O)(=O)c2ccc(C(=O)N(CCCN(C)C)c3nc4c(F)cc(F)cc4s3)cc2)CC1,"inconclusive: 0.316 µM [activator, full curve, poor fit]"
10,O=C(NCc1ccc(Cl)cc1)C1CCN(S(=O)(=O)c2ccc(F)cc2)CC1,"inconclusive: 0.562 µM [inhibitor, full curve, poor fit]"
16,Cc1ccc(-n2ncc(C(=O)Nc3ccc(Cl)cc3)c2C2CCNCC2)cc1C,"inconclusive: 31.6 µM [inhibitor, single point]"
